# Assay results: patent US11319337B2, “3-desoxy derivative and pharmaceutical compositions thereof” (Intercept Pharmaceuticals, Inc., priority 2016, dated 2022)
# pEC50: −log10 of the molar value.
# Test system: HepG2 cells
# Experiment: In vitro cytotoxicity, LDH release
# Assay type: cell-based
# Conditions: Homo sapiens
# Description: To evaluate in vitro cytotoxicity of Compound 1, two different assay methods are employed. The assays evaluate cell viability by measuring ATP levels and cytotoxicity by measuring LDH release. Adenosine Triphosphate (ATP) nucleotide represents the source of energy at the basic molecular level, as it is a multifunctional molecule that is used in every cell as a coenzyme and is an integral part of the mitochondrial DNA (Kangas, et al., Medical Biology, 1984, 62, 338-343; Crouch, et al., J Immunol. Methods, 1993, 160, 81-88; and Petty, et al., J Biolumin. Chemilumin. 1995, 10, 29-34). It has been called the “molecular unit of currency” when it comes to intracellular energy transfer. […] Cell viability is determined as a measure of intracellular ATP related to the time of exposure and concentration of the test compounds (Sussman, Promega Cell Notes, Issue 3, 2002).
# Another method to determine the viability of cells is to detect the integrity of the membrane that defines the cellular compartmentalization. Measuring the leakage of components out of the cytoplasm, in damaged cell membranes, indicates loss of membrane integrity, and LDH release is the method used to determine common toxicity in cells. HepG2 cells are treated with a compound of the invention, and serial dilutions are performed. […]
structure (smiles),measurement,value
"CC/C(=C(\c1ccccc1)c1ccc(OCCN(C)C)cc1)c1ccccc1 [Tamoxifen, reference compound]",pEC50,4.46
